These results are taken from publication PMC7573076.

The target of test [1] is T1, chicken MDA5 (chMDA5) (chicken (endogenous in DF1)) (UniProt D9N195).
T1 sequence: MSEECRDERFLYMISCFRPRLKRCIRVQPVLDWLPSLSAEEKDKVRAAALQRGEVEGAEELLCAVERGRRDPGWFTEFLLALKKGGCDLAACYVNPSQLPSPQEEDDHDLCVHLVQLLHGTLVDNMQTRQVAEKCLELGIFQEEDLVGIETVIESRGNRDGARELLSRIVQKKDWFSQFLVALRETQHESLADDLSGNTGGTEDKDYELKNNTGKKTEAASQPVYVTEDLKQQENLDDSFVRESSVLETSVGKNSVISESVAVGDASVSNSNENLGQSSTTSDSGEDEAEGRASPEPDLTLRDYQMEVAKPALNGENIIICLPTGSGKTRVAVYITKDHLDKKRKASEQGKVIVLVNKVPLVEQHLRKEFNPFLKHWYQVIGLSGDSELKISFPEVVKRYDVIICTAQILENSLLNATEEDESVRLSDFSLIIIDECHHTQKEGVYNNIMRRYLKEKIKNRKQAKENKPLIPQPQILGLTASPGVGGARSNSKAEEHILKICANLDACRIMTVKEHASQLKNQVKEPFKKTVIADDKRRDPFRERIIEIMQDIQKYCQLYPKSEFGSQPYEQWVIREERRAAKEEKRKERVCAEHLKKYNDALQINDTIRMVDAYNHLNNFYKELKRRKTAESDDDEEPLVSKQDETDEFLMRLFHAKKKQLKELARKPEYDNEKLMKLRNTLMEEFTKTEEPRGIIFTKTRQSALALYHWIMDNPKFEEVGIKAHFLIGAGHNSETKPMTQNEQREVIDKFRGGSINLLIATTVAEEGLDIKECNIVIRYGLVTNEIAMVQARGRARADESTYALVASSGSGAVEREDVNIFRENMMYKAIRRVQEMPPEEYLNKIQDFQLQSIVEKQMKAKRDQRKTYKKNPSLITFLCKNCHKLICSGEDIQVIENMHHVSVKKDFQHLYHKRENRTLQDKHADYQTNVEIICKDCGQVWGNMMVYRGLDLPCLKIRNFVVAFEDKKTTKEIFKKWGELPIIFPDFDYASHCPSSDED
In words: co-IP; DF1 cell lysates immunoprecipitated with rabbit pAb against chMDA5, western blotting with antibodies against the endogenous proteins (Supplementary Figure S2). A general note: Immunoblotting shows a protein as a band on a membrane.

Test [2] has as its target T2, HA-chMDA5-N (chicken) (UniProt D9N195).
T2 sequence: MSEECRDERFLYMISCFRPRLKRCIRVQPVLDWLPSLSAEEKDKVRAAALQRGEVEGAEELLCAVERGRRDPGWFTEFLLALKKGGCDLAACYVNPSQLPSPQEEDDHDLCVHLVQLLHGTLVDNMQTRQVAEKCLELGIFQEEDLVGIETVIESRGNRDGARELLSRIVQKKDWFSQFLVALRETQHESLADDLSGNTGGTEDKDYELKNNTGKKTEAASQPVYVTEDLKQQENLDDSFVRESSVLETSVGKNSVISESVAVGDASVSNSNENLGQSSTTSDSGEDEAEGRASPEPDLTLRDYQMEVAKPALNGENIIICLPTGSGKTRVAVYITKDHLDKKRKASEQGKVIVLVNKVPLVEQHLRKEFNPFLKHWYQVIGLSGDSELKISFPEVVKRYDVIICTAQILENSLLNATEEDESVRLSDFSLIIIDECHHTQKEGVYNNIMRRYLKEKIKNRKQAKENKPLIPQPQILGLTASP
In words: co-IP; tagged constructs co-transfected into DF1 cells, RIPA lysate 24 h later, anti-Flag or anti-HA magnetic beads at 4°C, immunoblot.

Test [3] addresses T2, HA-chMDA5-N (chicken). Description: co-IP; Flag-hnRNPH2 and HA-chMDA5-N; cell lysates pretreated with RNase A/T1 (Supplementary Figure S3).

No constants are given. Whether binding was seen depends on the method and setting. Binding seen in cells or lysates may run through a third protein. Binding can be weak; no strength is given. For some of these results: Sequences can lack the tags named with a protein.

With chicken DDX5, the binding result in test [1] is “binds”. For Flag-hnRNPH2 (chicken), the binding result in test [2] and in test [3] was “binds” throughout.

For the substance chicken hnRNPH2, the binding entry in test [1] is “binds”.

Consider chicken IFIT5, for which the binding entry in test [1] is recorded as “binds”. Flag-tagged chicken IFIT5: the binding result in test [2] is on record as “binds”.

As for Flag-tagged chicken DDX5, the binding entry in test [2] was “binds”.
